Measured values as given in PubChem BioAssay AID504834 (National Center for Advancing Translational Sciences (NCATS), 2011).
Hit rate of the full screen: of about 320,000 compounds, about 22,000 (6.9%) were called active. The inconclusive results got no clear call from the source; some entries with a clear call stand among them for comparison. Calls follow the shape of the dose curve; as a rule, active = well fitted inhibition curve with a large enough effect; inconclusive = small, poorly fitted or top-dose-only effect, or another doubt; inactive = no such curve, though single readings can be large or run the other way. Potencies of inconclusive entries are doubtful fits and often do not repeat.

Experiment: Primary qHTS for delayed death inhibitors of the malarial parasite plastid, 96 hour incubation
Conditions: P. falciparum luciferase reporter growth; series mostly up to 28.7 µM; activity change, negative = inhibition: at the top concentration
Method in brief: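 96 h incubation, 37 C, 5% CO2, of luciferase-reporter P. falciparum-infected RBCs (2% hematocrit, 0.05% parasitemia final) with test compounds; endpoint luminescence.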
% is scaled to controls: 0 for no effect and ±100 for the full control effect; potency is read from the fitted curve at half-maximal effect.

SMILES	Potency	activity change, negative = inhibition
CCOC(=O)c1sc(NC(NC(=O)c2ccco2)(C(=O)OC)C(F)(F)F)nc1C (configuration not stated)	inconclusive: 11.7 µM [inhibitor, partial curve]	–
CCCCN(C(=O)CSc1c(C)c(C)cc(C)c1C)c1c(N)n(CCC)c(=O)[nH]c1=O	inconclusive: 18.5 µM [inhibitor, single point]	–
N#CC1C=Cc2ccccc2N1C(=O)c1ccccc1 (configuration not stated)	–	inactive: -3.98%
S=C(Nc1ccc2nc(-c3ccccn3)c(-c3ccccn3)nc2c1)N1CCCCCC1	–	inactive: 32.6%
CC(C)C[C@@]12C(=O)N(c3cccc(Cl)c3)C(=O)N1[C@H](c1ccc(Br)cc1)[C@@H]1C(=O)N(C(C)(C)C)C(=O)[C@@H]12	active: 4.15 µM	–
N#CCNC(=O)C1CC(=O)N(CCc2ccc(F)cc2)C1 (configuration not stated)	inconclusive: 9.28 µM [inhibitor, single point]	–
Cc1cc2c(OCC(CNC(C)(C)C)OC(=O)c3ccccc3)cccc2[nH]1 (configuration not stated)	–	inactive: -7.61%
O=C(c1cc(C(=O)c2ccco2)cc(C(=O)c2ccco2)c1)c1ccco1	–	inactive: 81.6%
COc1ccc(NC(=O)COc2ccc(C(=O)OCC(=O)N(C(C)C)C(C)C)cc2OC)cc1	–	inactive: -15.6%
CC(=O)O[C@@]12CO[C@@H]1C[C@H](O)[C@@]1(C)C(=O)[C@H](O)C3=C(C)[C@@H](OC(=O)[C@H](O)[C@@H](NC(=O)c4ccccc4)c4ccccc4)C[C@@](O)([C@@H](OC(=O)c4ccccc4)C12)C3(C)C (some centres not stated)	active: 0.0738 µM	–
O=C(O)CC1(CC(=O)Nc2ccc3c(c2)OCCCO3)CCCCC1	–	inactive: 31%
COc1ccc2[nH]cc(C(=O)CN3CCCCC3)c2c1	inconclusive: 0.329 µM [inhibitor, full curve, poor fit]	–
CN(C)C(=O)CSc1nnc(-c2ccncc2)n1Cc1ccco1	inconclusive: 13.1 µM [inhibitor, single point]	–
O=C(O)c1ccccc1SC1CC(=O)N(c2ccc3c(c2)OCO3)C1=O (configuration not stated)	–	inactive: 16.1%
Cn1c(CNc2cccc(C(F)(F)F)c2)n[nH]c1=S	inconclusive: 11.7 µM [inhibitor, single point]	–
O=[N+]([O-])c1c(NCCCO)cc(Sc2nc3ccccc3s2)c2nonc12	–	inactive: 34.5%
CCCCCCOC(=O)c1ccc(OC(=O)c2cccnc2)cc1	–	inactive: 94.3%
CC(=O)Nc1ccc(-c2nc3ccccc3c(=O)o2)cc1	inconclusive: 10.4 µM [inhibitor, partial curve, poor fit]	–
Cc1ccccc1C(=O)NC(CC(C)C)C(=O)N1CCN(c2ccccc2)CC1 (configuration not stated)	inconclusive: 13.1 µM [inhibitor, single point]	–
CCOc1ccc2oc(C(=O)N(C)CC(=O)Nc3ccc(OCC)c(OCC)c3)c(C)c2c1	active: 11.7 µM	–
CC(OC(=O)c1ccc(Cl)c(S(=O)(=O)Nc2ccc(F)cc2)c1)C(=O)NC(N)=O (configuration not stated)	–	inactive: -3.54%
COc1ccc(OC)c2[nH]c(=O)c(CCNS(=O)(=O)c3ccc(C)cc3)cc12	inconclusive: 18.5 µM [inhibitor, single point]	–
CCC(Cc1ccccc1)NC(=O)C1CCCCC1 (configuration not stated)	inconclusive: 10.4 µM [inhibitor, single point]	–
N[C@@H](Cc1c[nH]c2ccccc12)c1nnc(SCc2ccccc2F)o1	inconclusive: 18.5 µM [inhibitor, single point]	–

SMILES	Potency	activity change, negative = inhibition
CCN(CC)CCN(C(=O)c1ccc2c(c1)CCCC2)c1nc2c(C)cccc2s1	inconclusive: 13.1 µM [inhibitor, partial curve]	–
CCOc1ccc(CCNC(=O)COC(=O)C2=NNC(=O)CC2)cc1OCC	inconclusive: 9.28 µM [inhibitor, partial curve]	–
Cc1ccc(-c2cc(C(=O)OCC(=O)N(C)C3CCS(=O)(=O)C3)c3ccccc3n2)o1 (configuration not stated)	–	inactive: 67.7%
CC(=O)Nc1ccc(NC(=O)c2cccc(S(=O)(=O)N(C)C3CCCCC3)c2)cc1	inconclusive: 6.57 µM [inhibitor, partial curve, poor fit]	–
CCc1c(-c2ccccc2)nc2sc3c(c2c1N)CCCC3	inconclusive: 10.4 µM [inhibitor, single point]	–
CC(C)Cc1nc(S(=O)(=O)c2ccc(Cl)cc2)c(N2CCOCC2)o1	–	inactive: 2.42%
Cc1cccc(C(=O)c2cn[nH]c2-c2ccc(C)cc2O)c1	inconclusive: 18.5 µM [inhibitor, single point]	–
COC(=O)c1c(NC(C)=O)csc1C	–	inactive: 10.1%
CCCNC(=O)CSc1nccn1Cc1ccco1	–	inactive: 22.8%
Oc1ccc(C2CNCc3sccc32)cc1O (configuration not stated)	inconclusive: 18.5 µM [inhibitor, single point]	–
COc1ccc(C)cc1NC(=O)CNC(C)C(=O)Nc1ccc(C(C)=O)cc1 (configuration not stated)	inconclusive: 16.5 µM [inhibitor, partial curve, poor fit]	–
CNC(=S)Nc1cccc(-c2cnc3ccccc3n2)c1	–	inactive: 97%
O=C(c1ccco1)n1nc(NCc2ccccc2)nc1NCc1ccccc1	–	inactive: -25.5%
CC(=O)Nc1ccc(S(=O)(=O)NNC(=O)COc2cccc3ccccc23)cc1	inconclusive: 10.4 µM [inhibitor, single point]	–
COc1cc(NC(=S)N2CCc3ccccc3C2)cc(OC)c1	inconclusive: 2.33 µM [inhibitor, full curve]	–
CC(C)Cn1c2ccccc2c2cc(C(=O)O)ccc21	–	inactive: 55.4%
Cc1ccc(C)c(NC(=S)NCC(c2ccccc2)N(C)C)c1 (configuration not stated)	inconclusive: 4.65 µM [inhibitor, partial curve, poor fit]	–
COc1ccc(-c2csc(NC(=O)c3ccccc3OC)c2C(=O)O)cc1OC	inconclusive: 3.29 µM [inhibitor, partial curve, poor fit]	–
COc1ccc2oc(C(=O)OCC(=O)N(C)CC(=O)Nc3ccc(F)cc3)c(C)c2c1	–	inactive: -1.8%
CCOC(=O)C1(Cc2cccc(OC)c2)CCN(C/C=C/c2ccccc2)CC1	inconclusive: 18.5 µM [inhibitor, single point]	–
C=CCc1cccc(/C=N/NC(=O)CNc2ccccc2OC)c1O	–	inactive: 24%
Cc1nc(N2CCN(Cc3nc4ccccc4[nH]3)CC2)c2oc3ccccc3c2n1	active: 5.86 µM	–
COc1ccc(NC(=O)C(Sc2nnc3ccccn23)c2ccccc2)cc1Cl (configuration not stated)	inconclusive: 18.5 µM [inhibitor, partial curve, poor fit]	–
COc1ccccc1CNC(=O)/C=C/c1cc2c(cc1Br)OCO2	–	inactive: 21.8%

Already shown: entries from further up.
SMILES	Potency	activity change, negative = inhibition
C=CCc1cccc(/C=N/NC(=O)CNc2ccccc2OC)c1O	–	inactive: 24%
Cc1nc(N2CCN(Cc3nc4ccccc4[nH]3)CC2)c2oc3ccccc3c2n1	active: 5.86 µM	–
COc1ccc(NC(=O)C(Sc2nnc3ccccn23)c2ccccc2)cc1Cl (configuration not stated)	inconclusive: 18.5 µM [inhibitor, partial curve, poor fit]	–

Some of the entries above in a different format.

| SMILES | Potency | activity change, negative = inhibition |
| --- | --- | --- |
| CCCNC(=O)CSc1nccn1Cc1ccco1 | – | inactive: 22.8% |
| COc1ccc2oc(C(=O)OCC(=O)N(C)CC(=O)Nc3ccc(F)cc3)c(C)c2c1 | – | inactive: -1.8% |

The listing continues.

SMILES	Potency	activity change, negative = inhibition
CC1(C)CC(=O)C2=C(C1)N(c1ccc(F)cc1)C(=O)C2(O)C(F)(F)F (configuration not stated)	–	inactive: 14.4%
C/C(CCc1ccc2c(c1)OCO2)=N\N=C1\NC(=O)CC(C(=O)Nc2ccc(Cl)cc2)S1 (configuration not stated)	–	inactive: 70.5%
CN1CCN(C(=O)C2CCCCC2)CC1	–	inactive: -1.65%
Cc1ccccc1-c1nc(CS(=O)CC(=O)N2CCC3(CC2)OCCO3)c(C)o1 (configuration not stated)	–	inactive: -25.7%
Cc1ccc(NC(=O)CCn2c(=O)[nH]c3ccsc3c2=O)cc1C	inconclusive: 13.1 µM [inhibitor, single point]	–
Cc1c(N=Cc2cc(Br)cc(Br)c2O)cccc1C(=O)O	inconclusive: 9.28 µM [inhibitor, single point]	–
COc1ccccc1-c1c(C)[nH]n2c(=O)c(Cc3ccccc3)c(C)nc12	inconclusive: 18.5 µM [inhibitor, single point]	–
CN(C)S(=O)(=O)N(CC(=O)Nc1ccc2ccccc2c1)c1ccccc1	inconclusive: 0.738 µM [inhibitor, full curve, poor fit]	–
CC(C)(C)c1ccc(NC(=O)N2CCCN(c3c(Cl)cncc3Cl)CC2)cc1	inconclusive: 10.4 µM [inhibitor, single point]	–
CN1CCC/C1=C/C=C1\SC(=S)NC1=O	inconclusive: 8.28 µM [inhibitor, partial curve, poor fit]	–
COc1ccc(N(CC(=O)Nc2cc(Cl)ccc2OC)S(=O)(=O)c2c(C)noc2C)cc1	active: 9.28 µM	–
CC(C)CNS(=O)(=O)c1cc(C(=O)N2CC(C)OC(C)C2)c(Cl)cc1Cl (configuration not stated)	inconclusive: 2.62 µM [inhibitor, full curve, poor fit]	–
COc1cc(C(=O)O/N=C2/C=C(C)C(=O)C=C2C)cc(OC)c1OC	–	inactive: 9.3%
CC(C)C(c1nnnn1Cc1ccc(F)cc1)N1CCN(c2ccc(O)cc2)CC1 (configuration not stated)	inconclusive: 0.0828 µM [inhibitor, full curve, poor fit]	–
Nc1nonc1-n1nnc(C(=O)N/N=C/C2CCCCC2)c1-c1ccccc1	–	inactive: 12%
COc1cc(C2c3c(oc4ccc(Cl)cc4c3=O)C(=O)N2Cc2ccco2)cc(OC)c1OC (configuration not stated)	inconclusive: 18.5 µM [inhibitor, single point]	–
O=C(NCc1ccccc1)C1=C[C@@H](C2CCCCC2)C[C@@H](OCc2ccc(CO)cc2)O1	inconclusive: 13.1 µM [inhibitor, single point]	–
CC(Sc1nnc(Cc2cccs2)n1C1CC1)C(=O)NC1CCS(=O)(=O)C1 (configuration not stated)	–	inactive: 2.46%
Cc1cc(C)cc(-n2ncc3c2CCCC3NC(=O)c2cc(C)n(C)n2)c1 (configuration not stated)	–	inactive: 2.18%
O=C(c1c(F)cccc1F)N1CCCc2ccccc21	–	inactive: -11.4%
O=C(c1cc(-c2ccccc2Cl)nc2ccccc12)N1CCOCC1	active: 0.37 µM	–
CN(CC(=O)Nc1ccc(Cl)c(Cl)c1)C(=O)/C=C/c1ccc(F)cc1	inconclusive: 18.5 µM [inhibitor, single point]	–
CCC1(c2ccc(F)cc2)NC(=O)N(CC(=O)Nc2cccc(S(=O)(=O)N3CCCCC3)c2)C1=O (configuration not stated)	inconclusive: 14.7 µM [inhibitor, partial curve, poor fit]	–
CCCN1CCN(S(=O)(=O)c2c(C)[nH]c(C)c2C(=O)N2CCCCC2)CC1	–	inactive: -16.3%
